Source: PubChem BioAssay AID588590 (National Center for Advancing Translational Sciences (NCATS), 2011)
The campaign covered roughly 390,000 compounds. About 4,000 (1%) were called active. The inconclusive results got no clear call from the source; some entries with a clear call stand among them for comparison. Calls follow the shape of the dose curve; as a rule, active = well fitted inhibition curve with a large enough effect; inconclusive = small, poorly fitted or top-dose-only effect, or another doubt; inactive = no such curve, though single readings can be large or run the other way. A potency beside an inconclusive call is a rough fit, not a confirmed value.

By UniProt entry, the sequences of proteins in these tests, tags left out. Where a name states a change or a piece, a line headed by the entry shows the natural chain unless it says otherwise.
UniProt Q9UNA4: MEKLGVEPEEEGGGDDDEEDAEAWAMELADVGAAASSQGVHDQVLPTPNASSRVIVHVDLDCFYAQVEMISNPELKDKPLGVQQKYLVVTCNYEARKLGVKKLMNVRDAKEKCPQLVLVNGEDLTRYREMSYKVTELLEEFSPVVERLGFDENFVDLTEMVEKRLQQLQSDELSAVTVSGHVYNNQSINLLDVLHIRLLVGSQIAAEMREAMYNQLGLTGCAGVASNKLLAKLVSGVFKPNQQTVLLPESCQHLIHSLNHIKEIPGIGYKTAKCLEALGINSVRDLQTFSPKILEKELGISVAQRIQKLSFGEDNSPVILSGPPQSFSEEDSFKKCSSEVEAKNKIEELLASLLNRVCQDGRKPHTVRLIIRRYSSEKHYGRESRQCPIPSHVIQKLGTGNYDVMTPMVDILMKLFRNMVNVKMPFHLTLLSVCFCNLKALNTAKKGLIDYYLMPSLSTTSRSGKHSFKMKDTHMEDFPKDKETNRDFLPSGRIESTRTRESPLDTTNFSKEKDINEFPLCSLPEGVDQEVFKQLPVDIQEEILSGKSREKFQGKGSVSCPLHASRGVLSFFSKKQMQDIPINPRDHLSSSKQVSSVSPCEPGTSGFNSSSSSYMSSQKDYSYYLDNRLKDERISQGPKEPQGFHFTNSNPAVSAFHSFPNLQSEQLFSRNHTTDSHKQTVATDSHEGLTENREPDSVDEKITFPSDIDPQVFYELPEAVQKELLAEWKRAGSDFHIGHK

Each compound was assayed against DNA polymerase iota (Homo sapiens) (UniProt Q9UNA4) (assay: qHTS for Inhibitors of Polymerase Iota). Conditions: Pol iota fluorescent replication assay, 10 min; series mostly up to 115 µM; activity, negative = inhibition: at the top concentration.
In short: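 Pol iota at 10 nM preincubated 15 min with compounds at room temperature; reaction started with fluorescent substrate, 50 nM final. Fluorescence read kinetically at 0 and 10 min; buffer-only wells as negative control.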
Potency is read from the fitted curve at half-maximal effect.

| Compound | activity, negative = inhibition | Potency |
| --- | --- | --- |
| COc1cc(C2Nc3ccc4ccccc4c3C3=C2C(=O)CC(C)(C)C3)ccc1OCC(=O)O (stereo not drawn) | inactive: 4.03% |  |
| COC(=O)C(C)Sc1ncnc2c1c(-c1ccccc1)cn2-c1ccc(F)cc1 (stereo not drawn) | inactive: 6.18% |  |
| Cc1cccc(C)c1-n1ncc(C(=O)N2CCN(c3ccccc3)CC2)c1C1CCN(C(=O)OC(C)(C)C)CC1 | inactive: 1.8% |  |
| CCN(CC)S(=O)(=O)c1ccc(/C=C/C(=O)OCC(=O)NCc2ccco2)cc1 |  | active: 35.5 µM |
| CN(CC(=O)Nc1cccc(C(F)(F)F)c1)S(=O)(=O)c1cccs1 |  | inconclusive: 89.1 µM [inhibitor, single point] |
| COc1ccc(OC)c(NC(=O)CN2C(=O)COc3ccc(S(=O)(=O)NC4CCCC4)cc32)c1 | inactive: -0.966% |  |
| COc1ccc(CC(=O)OCC(=O)NNC(=O)c2ccccc2)cc1 |  | inconclusive: 39.8 µM [inhibitor, partial curve, poor fit] |
| NC(=S)N/N=C/c1cn(-c2ccccc2)nc1-c1cccnc1 |  | inconclusive: 20 µM [inhibitor, partial curve, poor fit] |
| CC(C)OC(=O)c1c(-c2ccccc2)c(-c2ccccc2)nn(C)c1=O | inactive: 10.9% |  |
| Cc1cccc(OCCCc2c(C)n[nH]c2C)c1 |  | inconclusive: 14.1 µM [inhibitor, partial curve, poor fit] |
| Cc1ccc(S(=O)(=O)N2CCN(C(=O)c3ccco3)CC2)cc1 | inactive: 158% |  |
| Cc1sc(NC(=O)Cc2ccc3c(c2)OCO3)nc1-c1ccc2c(c1)CCN2C(=O)c1cccc(F)c1 | inactive: 18.7% |  |
| Cc1cccc2nc(Cn3c(=O)n(CCC(=O)NCc4ccco4)c(=O)c4sccc43)cc(=O)n12 |  | inconclusive: 70.8 µM [inhibitor, partial curve] |
| O=C(O)CCCCCN1C(=O)/C(=C\c2ccc(-c3ccc(Cl)cc3)o2)SC1=S |  | active: 35.5 µM |
| O=C(O)c1ccc(Nc2cc(Cl)c3nonc3c2[N+](=O)[O-])cc1 |  | active: 8.91 µM |
| CCC(C)NC(=O)Cn1nc(Cc2ccncc2)c2ccccc2c1=O (stereo not drawn) | inactive: -13.6% |  |
| O=c1nc(Nc2ccc(OCc3ccccc3)cc2)sc2ncccc12 |  | inconclusive: 100 µM [inhibitor, single point] |
| CC1CCN(C(=O)c2cc3c(=O)n4ccccc4nc3s2)CC1 |  | inconclusive: 89.1 µM [inhibitor, single point] |
| O=C(COc1ccccc1[N+](=O)[O-])N/N=C/C=C/c1ccco1 |  | inconclusive: 89.1 µM [inhibitor, partial curve, poor fit] |
| CC(=O)N1CCc2cc(S(=O)(=O)NC(Cc3ccccc3)C(=O)NCc3ccc(C)cc3)ccc21 (stereo not drawn) |  | inconclusive: 79.4 µM [inhibitor, partial curve, poor fit] |
| CC(C)(C)OC(=O)N(CCc1ccccc1)Cc1ccccc1OCc1cccc(NC(=O)C2CCC2)c1 | inactive: -11% |  |
| COc1cc(C(=O)Nc2cccc3cccnc23)cc(OC)c1OC | inactive: 13.9% |  |
| CNS(=O)(=O)c1cn(CC(=O)Nc2ccc(C(C)=O)cc2)cc1S(=O)(=O)NC |  | inconclusive: 89.1 µM [inhibitor, partial curve, poor fit] |

| Compound | activity, negative = inhibition | Potency |
| --- | --- | --- |
| CCOc1ccccc1NC(=O)N1CCC(NC(=O)c2cccc(C)c2)CC1 |  | inconclusive: 39.8 µM [inhibitor, single point] |
| N#Cc1sc(=O)[nH]c1Cl |  | inconclusive: 11.2 µM [inhibitor, partial curve] |
| COc1cc(C)c(Cl)cc1S(=O)(=O)NCCN1CCOCC1 |  | inconclusive: 89.1 µM [inhibitor, single point] |
| O=C(O)CCN1CC2([N+](=O)[O-])C=CC(=O)C([N+](=O)[O-])(C1)C2CC(=O)c1ccccc1 (stereo not drawn) |  | inconclusive: 39.8 µM [inhibitor, full curve, poor fit] |
| CC(Oc1cccc(Br)c1)C(=O)NNC(=O)CCNC(=O)c1ccccc1Cl (stereo not drawn) |  | inconclusive: 89.1 µM [inhibitor, partial curve, poor fit] |
| Cc1ccc(S(=O)(=O)C(CNC(=O)C(=O)NCc2ccccc2C)c2cccs2)cc1 (stereo not drawn) | inactive: -13.1% |  |
| O=C(Nc1ccnc(-c2cccnc2)n1)c1ccc(Cl)cc1 |  | inconclusive: 112 µM [inhibitor, partial curve, poor fit] |
| CC1(OC(=O)c2cccs2)C(=O)C=C2C=C(C3CC3)OC=C2C1=O (stereo not drawn) |  | inconclusive: 15.8 µM [inhibitor, full curve, poor fit] |
| CN(C)C1CCC(CC2CCc3ccccc32)CC1 (stereo not drawn) | inactive: 18.1% |  |
| COc1ccccc1NC(=O)CSC1=Nc2ccccc2C2=NC(CC(=O)NCc3ccccc3)C(=O)N12 (stereo not drawn) |  | inconclusive: 4.47 µM [inhibitor, full curve, poor fit] |
| Cc1ccc(NC(=O)c2nc(S(=O)(=O)Cc3ccccc3C)ncc2Cl)cc1C |  | inconclusive: 17.8 µM [inhibitor, partial curve, poor fit] |
| CCO/C(=C/c1sc2ccc(OC)cc2[n+]1CCCS(=O)(=O)[O-])CC | inactive: -16% |  |
| COc1cccc(NC(=O)c2nnn(CC(=O)Nc3cc(C)cc(C)c3)c2N)c1 |  | inconclusive: 56.2 µM [inhibitor, partial curve, poor fit] |
| Cc1ccc2nc(COc3ccc(N(C)S(=O)(=O)c4ccccc4)cc3)cc(=O)n2c1 |  | inconclusive: 12.6 µM [inhibitor, full curve, poor fit] |
| CC(=O)Oc1ccc(-c2nc(-c3ccccc3)no2)cc1 | inactive: 7.5% |  |
| COC(=O)c1c(NS(=O)(=O)c2ccc3ccccc3c2)sc2c1CCCC2 |  | inconclusive: 50.1 µM [inhibitor, partial curve] |
| CCc1ccc(N2CC(C(=O)Nc3ccc(S(=O)(=O)NCC4CCCO4)cc3)CC2=O)cc1 (stereo not drawn) |  | inconclusive: 79.4 µM [inhibitor, single point] |
| COc1cccc(/C=N/Nc2ccc(S(=O)(=O)O)cc2)c1O | inactive: 20.6% |  |
| Cc1ccc(OCc2nnc(SCC(=O)N3CCc4ccccc43)n2C)cc1 |  | inconclusive: 31.6 µM [inhibitor, single point] |
| Cc1cc(Cl)n2c(nc3cc(F)c(F)cc32)c1C#N |  | active: 6.31 µM |
| Cc1csc(CNc2ncnc3ccc(-c4cccnc4)cc23)c1 |  | inconclusive: 50.1 µM [inhibitor, single point] |
| C=CCOc1c(OC)cc(/C=N/Nc2cccc(C(=O)O)c2)c(Br)c1Br | inactive: -15.5% |  |
| Cc1ccc([C@H]2C(C(=O)O)=CC[C@@H](c3ccc(C(C)C)cc3)N2S(=O)(=O)c2ccc(C)cc2)cc1 |  | inconclusive: 1 µM [inhibitor, full curve, poor fit] |

| Compound | activity, negative = inhibition | Potency |
| --- | --- | --- |
| COc1ccc(/C=N/Nc2nc(-c3cccnc3)nc3ccccc23)cc1OC | inactive: 8.3% |  |
| Cc1ccc(S(=O)(=O)NCC(=O)N(CC(=O)NCc2ccco2)Cc2ccco2)cc1 |  | inconclusive: 56.2 µM [inhibitor, partial curve, poor fit] |
| Cc1ccc2c(c1)NCCO2 |  | inconclusive: 20 µM [inhibitor, single point] |
| C=CCC1(CC=C)CCCN1C(=O)CC1C(=O)NCCN1Cc1cccc(OC)c1OC (stereo not drawn) |  | inconclusive: 100 µM [inhibitor, single point] |
| Cc1onc(-c2ccccc2)c1-c1csc(COc2ccccc2)n1 | inactive: 15.5% |  |
| C#CCOC(=O)c1ccccc1C(=O)OCC#C | inactive: 5.22% |  |
| Cc1ccc(-c2csc(Nc3ccc(C(=O)O)cc3)[n+]2Cc2ccccc2)cc1 |  | inconclusive: 10 µM [inhibitor, full curve, poor fit] |
| Cc1[nH]n(-c2ccccc2)c(=O)c1C(=O)c1ccccc1 |  | inconclusive: 15.8 µM [inhibitor, partial curve, poor fit] |
| Cc1nc(SCC(=O)c2cccc([N+](=O)[O-])c2)n[nH]1 | inactive: 6.68% |  |
| COc1cc(C(=O)ONC(=O)c2ccc(OC(F)F)cc2)cc(OC)c1OC |  | inconclusive: 17.8 µM [inhibitor, full curve, poor fit] |
| O=C(NCCc1nc(-c2ccccc2)no1)c1ccccc1 |  | inconclusive: 0.631 µM [inhibitor, full curve, poor fit] |
| COc1ccccc1N1C(=O)CC(N2CCc3ccccc32)C1=O (stereo not drawn) |  | inconclusive: 17.8 µM [inhibitor, full curve] |
| O=C(CSC(=S)N1CCCC1)c1cc(Br)cc(Br)c1O |  | inconclusive: 15.8 µM [inhibitor, full curve, poor fit] |
| Cc1ccccc1NC(=S)N/N=C/c1ccc(O)cc1O | inactive: 52.3% |  |
| C#CCOc1ccc(C2CC(=O)Nc3c2c(C)nn3-c2nc(C)cc(C)n2)cc1 (stereo not drawn) |  | inconclusive: 89.1 µM [inhibitor, single point] |
| CCN=c1sc(C(=O)NCCc2ccccc2)cc(=O)n1CC |  | inconclusive: 31.6 µM [inhibitor, single point] |
| Cc1ccc(S(=O)(=O)Nc2c(O)ccc3ccccc23)cc1 |  | inconclusive: 25.1 µM [inhibitor, partial curve, poor fit] |
| Cc1cc(C)n(-c2ncnc3sc4c(c23)CCCC4)n1 |  | inconclusive: 70.8 µM [inhibitor, partial curve, poor fit] |
| CCn1cc(C(=O)O)c(=O)c2cc(F)c(N3CCN(C(=O)Nc4ccccc4)CC3)cc21 | inactive: -0.653% [at 58.9 µM] |  |
| O=C(Nc1ncc(Cc2ccccc2)s1)C1COc2ccccc2O1 (stereo not drawn) |  | inconclusive: 20 µM [inhibitor, partial curve, poor fit] |
| O=C1CC(c2ccccc2)=NN1c1nc(-c2ccccc2)cs1 |  | active: 20 µM |
| COc1ccc2nc(/N=C/c3c(C)[nH]n(-c4ccc(C)cc4)c3=O)sc2c1 |  | inconclusive: 28.2 µM [inhibitor, partial curve, poor fit] |

Arranged by number of heavy atoms (rising): some entries from above.

| Compound | activity, negative = inhibition | Potency |
| --- | --- | --- |
| O=C(O)CCN1CC2([N+](=O)[O-])C=CC(=O)C([N+](=O)[O-])(C1)C2CC(=O)c1ccccc1 (stereo not drawn) |  | inconclusive: 39.8 µM [inhibitor, full curve, poor fit] |
| CC(=O)N1CCc2cc(S(=O)(=O)NC(Cc3ccccc3)C(=O)NCc3ccc(C)cc3)ccc21 (stereo not drawn) |  | inconclusive: 79.4 µM [inhibitor, partial curve, poor fit] |
| CC(C)(C)OC(=O)N(CCc1ccccc1)Cc1ccccc1OCc1cccc(NC(=O)C2CCC2)c1 | inactive: -11% |  |
